Experimental data published in publication PMC4239114.
No constants are given. Whether binding was seen depends on the method and setting. For part of these data: Binding seen in cells or lysates may run through a third protein. Some entries that bind do so weakly or less than the wild type. For part of these data: Where a sequence is shown, tags or fusion partners need not be part of it.

T1: GAL4 BD-Myc-NleE (enteropathogenic E. coli (EPEC 2348/69)) (UniProt B7UI22)
T1 sequence: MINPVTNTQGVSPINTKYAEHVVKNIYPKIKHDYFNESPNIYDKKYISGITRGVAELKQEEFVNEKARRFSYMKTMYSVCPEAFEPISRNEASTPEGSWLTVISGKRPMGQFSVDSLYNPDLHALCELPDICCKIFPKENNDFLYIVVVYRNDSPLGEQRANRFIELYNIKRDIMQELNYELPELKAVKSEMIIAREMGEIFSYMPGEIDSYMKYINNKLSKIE

T2: NleE expressed in 293T cells (co-immunoprecipitation) (enteropathogenic E. coli (EPEC 2348/69)) (UniProt B7UI22)
T2 sequence: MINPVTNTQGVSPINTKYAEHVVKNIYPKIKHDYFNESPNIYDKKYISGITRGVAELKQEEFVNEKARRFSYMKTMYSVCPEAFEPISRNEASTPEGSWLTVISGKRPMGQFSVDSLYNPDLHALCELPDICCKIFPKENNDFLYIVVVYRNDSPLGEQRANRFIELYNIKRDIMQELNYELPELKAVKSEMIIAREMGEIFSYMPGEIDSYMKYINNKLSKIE


Legend:
[1] = biological target: T1, GAL4 BD-Myc-NleE (enteropathogenic E. coli (EPEC 2348/69)); test: two-hybrid; yeast strain AH109 transformed with plasmid combinations (bait+prey): GAL4 BD-Myc-NleE with GAL4 AD-fused TAB3 truncations
[2] = biological target: T2, NleE expressed in 293T cells (co-immunoprecipitation) (enteropathogenic E. coli (EPEC 2348/69)); test: co-IP; transfected 293T cells; anti-Flag immunoprecipitates and total lysates immunoblotted

Row | Molecule | binding [1] | binding [2]
1 | TAB3 residues 52-194 (GAL4 AD fusion) (from UniProt Q8N5C8 52-194) (domain or fragment) | binds | 
2 | TAB3 residues 52-194 expressed in 293T cells (from UniProt Q8N5C8 52-194) (domain or fragment) |  | binds
3 | TAB3 (GAL4 AD fusion) (protein, UniProt Q8N5C8 1-712) MAQSSPQLDIQVLHDLRQRFPEIPEGVVSQCMLQNNNNLEACCRALSQESSKYLYMEYHSPDDNRMNRNRLLHINLGIHSPSSYHPGDGAQLNGGRTLVHSSSDGHIDPQHAAGKQLICLVQEPHSAPAVVAATPNYNPFFMNEQNRSAATPPSQPPQQPSSMQTGMNPSAMQGPSPPPPPPSYMHIPRYSTNPITVTVSQNLPSGQTVPRALQILPQIPSNLYGSPGSIYIRQTSQSSSGRQTPQSTPWQSSPQGPVPHYSQRPLPVYPHQQNYQPSQYSPKQQQIPQSAYHSPPPSQCPSPFSSPQHQVQPSQLGHIFMPPSPSTTPPHPYQQGPPSYQKQGSHSVAYLPYTASSLSKGSMKKIEITVEPSQRPGTAINRSPSPISNQPSPRNQHSLYTATTPPSSSPSRGISSQPKPPFSVNPVYITYTQPTGPSCTPSPSPRVIPNPTTVFKITVGRATTENLLNLVDQEERSAAPEPIQPISVIPGSGGEKGSHKYQRSSSSGSDDYAYTQALLLHQRARMERLAKQLKLEKEELERLKSEVNGMEHDLMQRRLRRVSCTTAIPTPEEMTRLRSMNRQLQINVDCTLKEVDLLQSRGNFDPKAMNNFYDNIEPGPVVPPKPSKKDSSDPCTIERKARRISVTSKVQADIHDTQAAAADEHRTGSTQSPRTQPRDEDYEGAPWNCDSCTFLNHPALNRCEQCEMPRYT | binds | 
